Test results reported in US20210386367A1, “DEVICES AND SYSTEMS FOR GASTROINTESTINAL MICROBIOME DETECTION AND MANIPULATION” (Progenity, Inc., priority 2018, published 2021).
For at least one compound, name, drawing or mass did not settle the structure.

Experiments:
[1] = system: Veillonella spp.; experiment: Agar dilution MIC, 30 clinical isolates; format: cell-based; set-up: unit not given beside the values; conditions: 30 Veillonella spp. clinical isolates
[2] = system: Bacteroides non fragilis; experiment: Agar dilution MIC, 29 clinical isolates; format: cell-based, Bacteroides spp.; set-up: unit not given beside the values; conditions: 29 Bacteroides non-fragilis clinical isolates

How did the MIC Range [1] turn out when Cc1ncc([N+](=O)[O-])n1CCO [MTZ] was run?
Its MIC Range is 1->32.

And the MIC Range [2]?
The MIC Range was 0.12->16.
